Experimental data published in patent publication US12390440B2, “Immunomodulating trifluoromethyl-aminal azalides” (Zoetis Services LLC, priority 2020, dated 2025).
Some entries share one result that the patent states for a list of compounds. For at least one compound, name, drawing or mass did not settle the structure.

Test system: BRD pathogens, M. haemolytica and P. multocida
Test: MIC screening panel, BRD pathogens (CLSI broth micro-dilution)

Structure (SMILES) | in vitro activity vs. clinically relevant pathogenic strains for BRD
CC[C@H]1OC(=O)[C@H](C)[C@@H](O[C@H]2C[C@@](C)(OC)[C@](O)(CNCCS(=O)(=O)N(C)C)[C@H](C)O2)[C@H](C)[C@@H](O[C@@H]2O[C@H](C)C[C@H]3[C@H]2OC(C(F)(F)F)N3C)[C@](C)(O)C[C@@H](C)CN[C@H](C)[C@@H](O)[C@]1(C)O (stereo partly drawn) [Example A-13, 2-((((2S,3S,4R,6R)-6-(((2R,3S,4R,5R,8R,10R,11R,12S,13S,14R)-11-(((3aR,4S,6R,7aS)-1,6-dimethyl-2-(trifluoromethyl)hexahydro-2H-pyrano[4,3-d]oxazol-4-yl)oxy)-2-ethyl-3,4,10-trihydroxy-3,5,8,10,12,14-hexamethyl-15-oxo-1-oxa-6-azacyclopentadecan-13-yl)oxy)-3-hydroxy-4-methoxy-2,4-dimethyltetrahydro-2H-pyran-3-yl)methyl)amino)-N,N-dimethylethane-1-sulfonamide] | lack of in vitro activity
CC[C@H]1OC(=O)[C@H](C)[C@@H](O[C@H]2C[C@@](C)(OC)[C@](O)(CN3CCN(C)CC3)[C@H](C)O2)[C@H](C)[C@@H](O[C@@H]2O[C@H](C)C[C@H]3[C@H]2OC(C(F)(F)F)N3C)[C@](C)(O)C[C@@H](C)CN[C@H](C)[C@@H](O)[C@]1(C)O (stereo partly drawn) [Example B-2, (2R,3S,4R,5R,8R,10R,11R,12S,13S,14R)-11-(((3aR,4S,6R,7aS)-1,6-dimethyl-2-(trifluoromethyl)hexahydro-2H-pyrano[4,3-d]oxazol-4-yl)oxy)-2-ethyl-3,4,10-trihydroxy-13-(((2R,4R,5S,6S)-5-hydroxy-4-methoxy-4,6-dimethyl-5-((4-methylpiperazin-1-yl)methyl)tetrahydro-2H-pyran-2-yl)oxy)-3,5,8,10,12,14-hexamethyl-1-oxa-6-azacyclopentadecan-15-one] | lack of in vitro activity
CC[C@H]1OC(=O)[C@H](C)[C@@H](O[C@H]2C[C@@](C)(OC)[C@](O)(CNCC3CC3)[C@H](C)O2)[C@H](C)[C@@H](O[C@@H]2O[C@H](C)C[C@H]3[C@H]2OC(C(F)(F)F)N3C)[C@](C)(O)C[C@@H](C)CN[C@H](C)[C@@H](O)[C@]1(C)O (stereo partly drawn) [Example A-8, (2R,3S,4R,5R,8R,10R,11R,12S,13S,14R)-13-(((2R,4R,5S,6S)-5-(((cyclopropylmethyl)amino)methyl)-5-hydroxy-4-methoxy-4,6-dimethyltetrahydro-2H-pyran-2-yl)oxy)-11-(((3aR,4S,6R,7aS)-1,6-dimethyl-2-(trifluoromethyl)hexahydro-2H-pyrano[4,3-d]oxazol-4-yl)oxy)-2-ethyl-3,4,10-trihydroxy-3,5,8,10,12,14-hexamethyl-1-oxa-6-azacyclopentadecan-15-one] | lack of in vitro activity
CC[C@H]1OC(=O)[C@H](C)[C@@H](O[C@H]2C[C@@](C)(OC)[C@](O)(CNC3CCC3)[C@H](C)O2)[C@H](C)[C@@H](O[C@@H]2O[C@H](C)C[C@H]3[C@H]2OC(C(F)(F)F)N3C)[C@](C)(O)C[C@@H](C)CN[C@H](C)[C@@H](O)[C@]1(C)O (stereo partly drawn) [Example A-7, (2R,3S,4R,5R,8R,10R,11R,12S,13S,14R)-13-(((2R,4R,5S,6S)-5-((cyclobutylamino)methyl)-5-hydroxy-4-methoxy-4,6-dimethyltetrahydro-2H-pyran-2-yl)oxy)-11-(((3aR,4S,6R,7aS)-1,6-dimethyl-2-(trifluoromethyl)hexahydro-2H-pyrano[4,3-d]oxazol-4-yl)oxy)-2-ethyl-3,4,10-trihydroxy-3,5,8,10,12,14-hexamethyl-1-oxa-6-azacyclopentadecan-15-one] | lack of in vitro activity
CC[C@H]1OC(=O)[C@H](C)[C@@H](O[C@H]2C[C@@](C)(OC)[C@](O)(CNCCN3CCOC3=O)[C@H](C)O2)[C@H](C)[C@@H](O[C@@H]2O[C@H](C)C[C@H]3[C@H]2OC(C(F)(F)F)N3C)[C@](C)(O)C[C@@H](C)CN[C@H](C)[C@@H](O)[C@]1(C)O (stereo partly drawn) [Example A-24, (2R,3S,4R,5R,8R,10R,11R,12S,13S,14R)-11-(((3aR,4S,6R,7aS)-1,6-dimethyl-2-(trifluoromethyl)hexahydro-2H-pyrano[4,3-d]oxazol-4-yl)oxy)-2-ethyl-3,4,10-trihydroxy-13-(((2R,4R,5S,6S)-5-hydroxy-4-methoxy-4,6-dimethyl-5-(((2-(2-oxooxazolidin-3-yl)ethyl)amino)methyl)tetrahydro-2H-pyran-2-yl)oxy)-3,5,8,10,12,14-hexamethyl-1-oxa-6-azacyclopentadecan-15-one] | lack of in vitro activity
CC[C@H]1OC(=O)[C@H](C)[C@@H](O[C@H]2C[C@@](C)(OC)[C@](O)(CNCCO)[C@H](C)O2)[C@H](C)[C@@H](O[C@@H]2O[C@H](C)C[C@H]3[C@H]2OC(C(F)(F)F)N3C)[C@](C)(O)C[C@@H](C)CN[C@H](C)[C@@H](O)[C@]1(C)O (stereo partly drawn) [Example A-3, (2R,3S,4R,5R,8R,10R,11R,12S,13S,14R)-11-(((3aR,4S,6R,7aS)-1,6-dimethyl-2-(trifluoromethyl)hexahydro-2H-pyrano[4,3-d]oxazol-4-yl)oxy)-2-ethyl-3,4,10-trihydroxy-13-(((2R,4R,5S,6S)-5-hydroxy-5-(((2-hydroxyethyl)amino)methyl)-4-methoxy-4,6-dimethyltetrahydro-2H-pyran-2-yl)oxy)-3,5,8,10,12,14-hexamethyl-1-oxa-6-azacyclopentadecan-15-one] | lack of in vitro activity
CC[C@H]1OC(=O)[C@H](C)[C@@H](O[C@H]2C[C@@](C)(OC)[C@](O)(CNCC3CCC(=O)N3)[C@H](C)O2)[C@H](C)[C@@H](O[C@@H]2O[C@H](C)C[C@H]3[C@H]2OC(C(F)(F)F)N3C)[C@](C)(O)C[C@@H](C)CN[C@H](C)[C@@H](O)[C@]1(C)O (stereo partly drawn) [Example A-21, (2R,3S,4R,5R,8R,10R,11R,12S,13S,14R)-11-(((3aR,4S,6R,7aS)-1,6-dimethyl-2-(trifluoromethyl)hexahydro-2H-pyrano[4,3-d]oxazol-4-yl)oxy)-2-ethyl-3,4,10-trihydroxy-13-(((2R,4R,5S,6S)-5-hydroxy-4-methoxy-4,6-dimethyl-5-((((5-oxopyrrolidin-2-yl)methyl)amino)methyl)tetrahydro-2H-pyran-2-yl)oxy)-3,5,8,10,12,14-hexamethyl-1-oxa-6-azacyclopentadecan-15-one] | lack of in vitro activity
